Laboratory results: PubChem BioAssay AID602196 (INSERM, 2012)

Aim: 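Modifiers of cisplatin sensitivity in A549 cells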
Cells: human A549 lung cancer cells
Reagents: siRNA pair against human genes
Timing: 48 h transfection before cisplatin; time from cisplatin to read-out not stated
Challenge: cisplatin at a dose killing half of control-siRNA cells; exact dose and duration not given
Measurement: 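Cisplatin cell death as a shift from the 50% death seen with control siRNA; siRNAs toxic or growth-blocking alone scored 0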
Scale: two-siRNA summed score (-2 to +2): higher = both siRNAs protect from cisplatin killing; -2 means both sensitise
Active means: 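Each siRNA scores 0 if harmful alone by LDH or WST-1, otherwise +1 if it reduces and -1 if it increases cisplatin killing; a gene is active when both siRNAs agree (sum +2 or -2)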
Meaning of the calls: active = both siRNAs shift cisplatin killing the same way; inactive = no consistent shift, or siRNA harmful alone
The whole screen tested about 23,000 reagents; this is a random part of them. 455 of them (2%) were called active. 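Active includes both protection and sensitisation; some change values fall well beyond the stated -50 to +50 range.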 Unmarked entries are inactive. Further read-outs or replicates are left out here. No sequences are given here. The record does not give: the amount of reagent.

Gene	two-siRNA summed score (-2 to +2)
TRIM42	2 (active)
COBLL1	1
LOC389365	0
ECHDC3	0
VEPH1	0
SHOC1	1
RD3	1
PCDH8	0
OR6B3	1
SIPA1	0
CLCN2	0
CD79A	-1
RXRA	-1
C11orf58	0
CD3D	0
LOC402521	0
ISLR2	0
FUT3	0
BET1L	0
UXT	0
DYNC2LI1	0
PPFIBP1	0
TNNC1	-1
SGCZ	1
INTS9	0
CDC37	0
ATP13A2	0
FLJ32682	0
GGPS1	1
CMTM1	0
WBSCR23	0
SMCO4	0
LOC391387	1
ARHGEF19	0
RNF39	0

4 entries from above, sorted by “two-siRNA summed score (-2 to +2)”, ascending:
Gene	two-siRNA summed score (-2 to +2)
ISLR2	0
FUT3	0
BET1L	0
UXT	0

The list goes on:
Gene	two-siRNA summed score (-2 to +2)
CHRNB2	1
LOC400832	1
PNKP	2 (active)
MORF4L2	0
LUZP2	0
WNT9B	-1
KIF6	0
LOC441507	0
LIPM	-1
ATP1B3	1
ADARB2	0
OR5A2	0
FN3KRP	2 (active)
SEPHS2	0
LOC388972	1
SKP1	-1
LINC00710	0
DDRGK1	1
RECQL5	0
VWA5B1	0
LOC285733	0
PMCH	0
